According to publication PMC6385987:
No constants are given. Whether binding was seen depends on the method and setting. In cells and extracts the contact can be indirect. Some binding calls cover weakened binding; strength is not graded here. Sequences can lack the tags named with a protein.

Molecular target: T1, CG2941-Flag (Drosophila melanogaster) (UniProt Q9W4N9)
T1 sequence: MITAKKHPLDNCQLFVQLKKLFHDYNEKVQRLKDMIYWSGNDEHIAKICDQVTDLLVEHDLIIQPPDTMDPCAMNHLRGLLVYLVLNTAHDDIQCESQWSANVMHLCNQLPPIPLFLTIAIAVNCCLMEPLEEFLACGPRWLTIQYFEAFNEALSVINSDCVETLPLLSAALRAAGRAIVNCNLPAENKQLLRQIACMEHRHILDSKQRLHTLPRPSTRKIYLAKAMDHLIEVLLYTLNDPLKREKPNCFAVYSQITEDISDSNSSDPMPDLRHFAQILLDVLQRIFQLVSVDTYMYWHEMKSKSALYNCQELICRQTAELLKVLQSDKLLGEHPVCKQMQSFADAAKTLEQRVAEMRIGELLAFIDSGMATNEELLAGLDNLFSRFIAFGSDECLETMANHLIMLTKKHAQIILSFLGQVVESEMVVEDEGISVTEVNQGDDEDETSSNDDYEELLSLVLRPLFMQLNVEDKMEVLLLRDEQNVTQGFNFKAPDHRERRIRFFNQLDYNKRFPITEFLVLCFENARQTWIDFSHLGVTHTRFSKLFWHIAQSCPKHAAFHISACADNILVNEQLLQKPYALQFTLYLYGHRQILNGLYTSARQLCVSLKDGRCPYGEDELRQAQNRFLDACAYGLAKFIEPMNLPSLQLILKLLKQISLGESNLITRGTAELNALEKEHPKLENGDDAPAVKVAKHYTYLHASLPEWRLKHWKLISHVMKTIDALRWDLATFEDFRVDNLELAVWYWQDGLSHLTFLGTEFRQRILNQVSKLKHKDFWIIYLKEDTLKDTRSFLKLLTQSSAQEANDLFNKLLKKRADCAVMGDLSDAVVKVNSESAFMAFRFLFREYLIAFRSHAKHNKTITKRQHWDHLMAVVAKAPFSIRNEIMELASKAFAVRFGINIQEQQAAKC
Test: co-IP; total lysate of S2 cells transfected with CG2941-Flag (mock transfected cells in parallel) on anti-FLAG agarose beads, 4C; western blot with anti-SMN

binding: binds
B1: endogenous SMN of Drosophila S2 cells (protein, UniProt Q9VV74 1-226)
chain: MSDETNAAVWDDSLLVKTYDESVGLAREALARRLADSTNKREEENAAAAEEEAGEISATGGATSPEPVSFKVGDYARATYVDGVDYEGAVVSINEEKGTCVLRYLGYENEQEVLLVDLLPSWGKRVRREQFLIAKKDEDEQLSRPKASAGSHSKTPKSSRRSRISGGLVMPPMPPVPPMIVGQGDGAEQDFVAMLTAWYMSGYYTGLYQGKKEASTTSGKKKTPKK
